The list does not hold the whole screen: it gathers tests that were run many times, whatever their T/C, doses with no T/C, and many T/C values between a quarter and a half above the control. Other doses and runs of a compound stand elsewhere. T/C: endpoint of the treated group in % of that of the vehicle group. Some entries give survivors of the animals treated and no T/C: the source files T/C as zero there, which appears to mark a toxic dose or a test without result, not a measured value. Some doses without a T/C left all or most animals alive at the check, yet need not have been tolerated: the source hardly ever lists a survival T/C far under the control, and the zero likely stands for such cases as well. Counts of survivors are from the toxicity check (mostly the fifth day) where no day follows; animals may have died later. Schedules are NCI's codes, read here as Q, the interval in days (D) or hours (H), X, the number of doses. Some doses were run more than once; the results are listed from low to high. Where survival is the endpoint, the PubChem record calls one and a half times the control and up active, and a quarter to a half above the control has no call in these data; cut-offs in other NCI protocols can differ. Some schedule codes hold Z or #, which are not explained here.

This experiment has as its system L1210 leukemia ip in BDF1 mice, survival T/C. Briefly: NCI In Vivo Anticancer Drug Screen. Data for tumor model L1210 Leukemia (intraperitoneal) in B6D2F1 (BDF1) mice. Particulars: T/C endpoint: mean survival time, higher T/C = longer survival; for T/C: schedule: Q01DX Z (ip), vehicle: carboxymethylcellulose (CMC).
The mark [1] stands for this setting: dose: 200.0 mg/kg/injection, schedule: Q01DX001 (ip), vehicle: saline.
Setting [2] is: dose: 400.0 mg/kg/injection, schedule: Q04DX003 (ip), vehicle: saline with Tween-80.
Where [3] appears, read: dose: 400.0 mg/kg/injection, schedule: Q04DX003 (ip), vehicle: Klucel (hydroxypropylcellulose) (HPC).
The mark [4] stands for this setting: dose: 400.0 mg/kg/injection, schedule: Q01DX009 (ip), vehicle: Klucel (hydroxypropylcellulose) (HPC).
Setting [5] is: dose: 100.0 mg/kg/injection, schedule: Q01DX001 (ip), vehicle: saline.
Setting [6] is: dose: 400.0 mg/kg/injection, schedule: Q01DX001 (ip), vehicle: saline.
Setting [7] is: dose: 400.0 mg/kg/injection, schedule: Q01DX009 (ip), vehicle: saline with Tween-80.

With `CN(C)C(SCc1c(Cl)c(Cl)c(Cl)c(Cl)c1Cl)=[N+](C)C`, the survivor count was 3 of 3 (dose: 25.0 mg/kg/injection, schedule: Q04DX002 (ip), vehicle: saline); 2 of 3 (dose: 50.0 mg/kg/injection, schedule: Q04DX002 (ip), vehicle: saline); 0 of 3 (dose: 100.0 mg/kg/injection, schedule: Q04DX002 (ip), vehicle: saline); 1 of 3 (dose: 200.0 mg/kg/injection, schedule: Q04DX002 (ip), vehicle: saline); 0 of 3 (dose: 400.0 mg/kg/injection, schedule: Q04DX002 (ip), vehicle: saline).

For `NCc1ccccn1`, the survivor count under setting [1] was 6 of 6.

In the case of `CCOCc1nc2nc(Cl)c(Cl)nc2[nH]1`, the survivor count (dose: 100.0 mg/kg/injection, schedule: Q04DX003 (ip), vehicle: saline with Tween-80) is 6 of 6 and the survivor count under setting [2] was 4 of 6.

In the case of `O=C1N(c2ccccc2)C(=O)N1c1ccccc1`, under setting [3], the survivor count is 6 of 6.

In the case of `NC1CCC(CC2CCCC2)CC1` (stereo not given), the survivor count reads like this: (dose: 200.0 mg/kg/injection, schedule: Q04DX003 (ip), vehicle: Klucel (hydroxypropylcellulose) (HPC)) 0 of 6; under setting [3], 0 of 6.

With `O=C1c2cc([N+](=O)[O-])ccc2-c2c1cccc2[N+](=O)[O-]`, the survivor count is 6 of 6 (dose: 75.0 mg/kg/injection, schedule: Q01DX001 (ip), vehicle: Klucel (hydroxypropylcellulose) (HPC)) and 6 of 6 (dose: 150.0 mg/kg/injection, schedule: Q01DX001 (ip), vehicle: Klucel (hydroxypropylcellulose) (HPC)).

As for `Nn1c2ccccc2c2ccccc21`, the survivor count under setting [4] is 1 of 6.

For the molecule `Cc1cc(C)c(C[N+](C)(C)C)c(C)c1C`, the survivor count is, setting by setting: under setting [5], 0 of 4; under setting [1], 0 of 4; under setting [6], 0 of 4.

In the case of `O=[N+]([O-])c1ccccc1C1=Cc2cccn2-c2ccccc2S1(=O)=O`, the survivor count under setting [3] was 6 of 6.

Turning to `CCC(C)(CCC(C)C)c1ccncc1` (stereo not given), the survivor count under setting [6] is reported as 0 of 6.

`CNC(=O)N(C)N=O`: the T/C (dose: 25.0 mg/kg/injection) is 125 % of control; the T/C (dose: 50.0 mg/kg/injection) is 136 and 146 % of control.

For `C[N+](C)(C)C1/C=C(/Cl)CC/C=C(/Cl)C1` (stereo not given), the survivor count was 0 of 6 (dose: 75.0 mg/kg/injection, schedule: Q01DX001 (ip), vehicle: saline); 0 of 6 (dose: 150.0 mg/kg/injection, schedule: Q01DX001 (ip), vehicle: saline); 0 of 6 (dose: 300.0 mg/kg/injection, schedule: Q01DX001 (ip), vehicle: saline).

With `CCCCNC(C)(C)C(SC(C)=O)c1ccc(Cl)cc1` (stereo not given), the survivor count (dose: 200.0 mg/kg/injection, schedule: Q01DX009 (ip), vehicle: saline with Tween-80) is on record as 4 of 6 and the survivor count under setting [7] is listed as 0 of 6.

For the molecule `Cc1cc(S(=O)(=O)F)ccc1NC(=O)NCc1ccc([N+](=O)[O-])cc1`, the survivor count under setting [4] is recorded as 2 of 6.

As for `CC1(C)N=C(N)N=C(N)N1c1ccc2c(Cl)c(Cl)ccc2c1`, the survivor count is, setting by setting: (dose: 200.0 mg/kg/injection, schedule: Q04DX003 (ip), vehicle: saline with Tween-80) 1 of 6; under setting [2], 0 of 6.

For `CC(=N/NC(=O)c1ccc[n+](C)c1)/C(C)=N\NC(=O)c1ccc[n+](C)c1`, the survivor count is 1 of 3 and 2 of 6 under setting [5]; 0 of 6 under setting [1]; 0 of 6 under setting [6].

`CC(=O)c1c[nH]c2c(O)ccc(O)c12`: the survivor count runs as follows: (dose: 12.5 mg/kg/injection, schedule: Q04DX002 (ip), vehicle: Klucel (hydroxypropylcellulose) (HPC)) 3 of 3; (dose: 50.0 mg/kg/injection, schedule: Q04DX002 (ip), vehicle: Klucel (hydroxypropylcellulose) (HPC)) 1 of 3.

For `O=C(NC(=S)Nc1cccc(O)c1)c1cccc([N+](=O)[O-])c1`, under setting [7], the survivor count is 6 of 6.
